Results are given in words; binding and its absence hold for the method and conditions named. In cells and extracts the contact can be indirect. Some binding calls cover weakened binding; strength is not graded here.
Target: T1, TNFR-associated factor 2 (TRAF2) (UniProt Q12933)
T1 sequence: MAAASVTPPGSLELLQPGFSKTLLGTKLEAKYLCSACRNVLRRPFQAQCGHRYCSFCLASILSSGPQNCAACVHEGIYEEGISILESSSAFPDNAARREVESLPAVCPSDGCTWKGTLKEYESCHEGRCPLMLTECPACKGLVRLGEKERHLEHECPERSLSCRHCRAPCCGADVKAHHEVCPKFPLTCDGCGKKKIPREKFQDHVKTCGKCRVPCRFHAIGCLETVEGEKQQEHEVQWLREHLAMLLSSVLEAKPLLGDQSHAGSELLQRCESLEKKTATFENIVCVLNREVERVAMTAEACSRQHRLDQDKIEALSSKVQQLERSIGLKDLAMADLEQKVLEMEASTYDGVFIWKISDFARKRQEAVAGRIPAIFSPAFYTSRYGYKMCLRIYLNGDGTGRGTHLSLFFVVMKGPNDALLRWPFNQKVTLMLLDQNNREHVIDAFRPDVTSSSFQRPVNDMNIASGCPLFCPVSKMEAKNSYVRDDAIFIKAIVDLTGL
Assay: co-IP; proteins coexpressed in HEK293 cells; immunoprecipitation and immunoblotting with the antibodies indicated; for TRAF2 with TRAF3 also with co-transfected USP17

binding: binds
B1: ubiquitin-specific peptidase 17 (USP17), wild type (enzyme, UniProt Q6R6M4 1-530)
chain: MEDDSLYLGGEWQFNHFSKLTSSRPDAAFAEIQRTSLPEKSPLSSEARVDLCDDLAPVARQLAPRKKLPLSSRRPAAVGAGLQNMGNTCYENASLQCLTYTPPLANYMLSREHSQTCQRPKCCMLCTMQAHITWALHSPGHVIQPSQALAAGFHRGKQEDAHEFLMFTVDAMKKACLPGHKQVDHHSKDTTLIHQIFGGCWRSQIKCLHCHGISDTFDPYLDIALDIQAAQSVKQALEQLVKPEELNGENAYHCGLCLQRAPASKTLTLHTSAKVLILVLKRFSDVTGNKLAKNVQYPECLDMQPYMSQQNTGPLVYVLYAVLVHAGWSCHDGHYFSYVKAQEGQWYKMDDAKVTACSITSVLSQQAYVLFYIQKSEWERHSESVSRGREPRALGAEDTDRRATQGELKRDHPCLQAPELDERLVERATQESTLDHWKFPQEQNKTKPEFNVRKVEGTLPPNVLVIHQSKYKCGMKNHHPEQQSSLLNLSSTTRTDQESVNTGTLASLQGRTRRSKGKNKHSKRALLVCQ

Reference: publication PMC6283856 (2018)
